Measured values from patent US11185100B2 (priority 2014, dated 2021).
The match of structure and compound is tentative.

The chains behind the UniProt entries cited, without tags or fusion partners. Residues count along the entry.
UniProt E3UMS2, 1-296: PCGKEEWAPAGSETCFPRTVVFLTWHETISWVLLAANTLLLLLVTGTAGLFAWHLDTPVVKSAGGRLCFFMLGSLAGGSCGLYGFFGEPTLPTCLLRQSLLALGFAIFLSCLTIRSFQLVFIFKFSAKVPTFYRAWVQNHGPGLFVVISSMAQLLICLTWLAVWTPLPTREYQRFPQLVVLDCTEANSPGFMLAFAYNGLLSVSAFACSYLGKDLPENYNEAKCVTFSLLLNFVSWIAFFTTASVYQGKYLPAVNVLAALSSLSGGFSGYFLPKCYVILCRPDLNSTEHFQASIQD

Target: cat T1R1/T1R3 receptor (Felis catus, UniProt E3UMS2)

CC(O)C(=O)Nc1nc2c(ncn2[C@@H]2O[C@H](COP(=O)(O)O)[C@@H](O)[C@H]2O)c(=O)[nH]1 (some centres unmarked)
Activity: active | Max resp. (ΔF/F): 1.3600 ΔF/F | Max. resp. % of IMP: 140.5 % of IMP | Threshold: 0.025 mM | EC50 (read-out: EC50- with Ala): 100 µM
